Results on one compound are retold here after US7011824B2, “Methods of treating manure” (priority 1998, dated 2006).

A short description of data set [1]: Effect of aluminum chloride and alum on phosphorus solubility and pH of swine manure slurry (Example 1).
A short description of data set [2]: Effect of 10 ml of 10% alum or aluminum chloride on soluble reactive phosphorus and pH of fresh liquid swine waste (Example 2). The settings on record: 10 ml of 10% solution per 100 ml slurry.

Structures are written as SMILES.

`[Cl][Al]([Cl])[Cl]` [aluminum chloride]: in data set [1] (0-10 ml of 10% solution per 100 ml slurry, FIG. 2), the pH entry is given as “reduced the pH”. Further, in data set [1] (treatment added to swine manure slurry), the “hydrogen sulfide gas formation” value is given as “did not result in hydrogen sulfide gas formation”. In data set [2] (3 days at 25° C., FIG. 3), the “soluble phosphorus levels (SRP)” value is “greatly reduced soluble phosphorus levels”. Further, the “decrease in soluble phosphorus” value in data set [2] (versus control) was “about 100 fold”.
